The values below are quoted from earlier work in US8073633B2 (The Invention Science Fund I, LLC, priority 2008, dated 2011).

For the data set the following is noted: plasma concentration.

As for `CN(C)CCOC(c1ccccc1)c1ccccc1` [diphenhydramine], the “plasma levels that correlate with a sedative effect” value is recorded as “greater than 50 ng/ml”.
